Measurements reported in PubChem BioAssay AID1159578 (Peter MacCallum Cancer Centre, 2015)
Shown is a random part of about 18,000 reagents tested. About 1,030 of all reagents (5.7%) count as active. 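Inactive calls also include pools with fewer than 3300 nuclei, whose migration was not assessed.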 Raw values vary from plate to plate and are shown uncorrected. Entries without a mark were called inactive.

- Aim: 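Genome-wide hunt for genes controlling movement of lymphatic endothelial cells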 (primary screen)
- System: human lymphatic endothelial cells
- Knock-down reagent: siRNA pool against human genes, 40 nM
- Time to read-out: 48 h after transfection
- Detection: 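Cells stained with dye and imaged after a scratch; covered wound area and nuclei counted, duplicates averaged, migration set against mock wells and turned into a robust z-score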
- Direction: migration robust z-score: higher = faster migration into the scratch; migration relative to mock: higher = more scratch area covered than mock; nuclei per well: higher = more cells in the well
- Active means: 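Pools averaging fewer than 3300 nuclei are never called; remaining pools count as changed when migration robust z lies outside -2 to 2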
- Calls: active = migration changed; inactive = no migration change, or too few cells

no.	gene	migration robust z-score	migration class with cell-count check	migration relative to mock	nuclei per well, duplicate mean
1	IFRD1 (interferon related developmental regulator 1)	-0.68	migration z between -2 and 2; enough cells	0.71	5556
2	MAS1L (MAS1 proto-oncogene like, G protein-coupled receptor)	0.96	migration z between -2 and 2; enough cells	0.99	7348
3	KRTAP13-1 (keratin associated protein 13-1)	0.02	migration z between -2 and 2; enough cells	0.88	5277
4	TPO (thyroid peroxidase)	-2.52 (active)	migration z below -2; enough cells	0.32	4344
5	DNPH1 (2'-deoxynucleoside 5'-phosphate N-hydrolase 1)	1.56	migration z between -2 and 2; enough cells	1.1	5233
6	GPC6 (glypican 6)	-1.9	migration z between -2 and 2; enough cells	0.4	3792
7	KIAA0930	1.35	migration z between -2 and 2; enough cells	1.23	4570
8	HNF1B (HNF1 homeobox B)	1.43	migration z between -2 and 2; enough cells	1.08	5472
9	ZNF267 (zinc finger protein 267)	-0.42	migration z between -2 and 2; enough cells	0.77	4656
10	TKFC (triokinase and FMN cyclase)	-0.13	migration z between -2 and 2; enough cells	0.86	5315
11	CCDC171 (coiled-coil domain containing 171)	-0.04	migration z between -2 and 2; enough cells	0.87	5144
12	ZSCAN26 (zinc finger and SCAN domain containing 26)	-0.88	migration z between -2 and 2; enough cells	0.66	5178
13	TUT4 (terminal uridylyl transferase 4)	0.88	under 3300 nuclei; migration not judged	0.98	2988
14	SLC25A22	1.04	migration z between -2 and 2; enough cells	1	6478
15	USP24 (ubiquitin specific peptidase 24)	0	migration z between -2 and 2; enough cells	0.8	5539
16	CCDC71 (coiled-coil domain containing 71)	-0.5	migration z between -2 and 2; enough cells	0.75	6968
17	CADM1 (cell adhesion molecule 1)	-2.55 (active)	migration z below -2; enough cells	0.22	5603
18	ITGA6 (integrin subunit alpha 6)	0.88	migration z between -2 and 2; enough cells	0.98	5364
19	OR1L1 (olfactory receptor family 1 subfamily L member 1)	0.43	migration z between -2 and 2; enough cells	1	5795
20	PARD3 (par-3 family cell polarity regulator)	-0.96	migration z between -2 and 2; enough cells	0.64	5675
21	FLVCR1 (FLVCR choline and heme transporter 1)	-0.31	migration z between -2 and 2; enough cells	0.74	6068
22	AGPS (alkylglycerone phosphate synthase)	-0.02	migration z between -2 and 2; enough cells	0.8	5488
23	ARL17B (ARF like GTPase 17B)	0.4	migration z between -2 and 2; enough cells	0.99	5552
24	APOLD1 (apolipoprotein L domain containing 1)	-0.75	migration z between -2 and 2; enough cells	0.69	4526
25	TMPRSS2 (transmembrane serine protease 2)	0.83	migration z between -2 and 2; enough cells	0.97	5499
26	HTRA2 (HtrA serine peptidase 2)	1.94	migration z between -2 and 2; enough cells	1.18	5830
27	BPIFB1 (BPI fold containing family B member 1)	1.13	migration z between -2 and 2; enough cells	1.18	5799
28	CTH (cystathionine gamma-lyase)	-0.16	migration z between -2 and 2; enough cells	0.78	6501
29	ALAS1 (5'-aminolevulinate synthase 1)	0.98	migration z between -2 and 2; enough cells	1	6003
30	ZNF217 (zinc finger protein 217)	3 (active)	migration z above 2; enough cells	1.66	6745
31	STXBP3 (syntaxin binding protein 3)	1.45	migration z between -2 and 2; enough cells	1.26	5426
32	CSPG4 (chondroitin sulfate proteoglycan 4)	0.47	migration z between -2 and 2; enough cells	1.01	7032
33	ZNF517 (zinc finger protein 517)	0.85	migration z between -2 and 2; enough cells	1.1	6017
34	TMEM9 (transmembrane protein 9)	0.2	migration z between -2 and 2; enough cells	0.94	6793
35	SCN3B (sodium voltage-gated channel beta subunit 3)	1.92	migration z between -2 and 2; enough cells	1.17	5118
36	IL20 (interleukin 20)	-0.6	migration z between -2 and 2; enough cells	0.73	5884
37	IDH2 (isocitrate dehydrogenase (NADP(+)) 2)	-0.21	migration z between -2 and 2; enough cells	0.76	4564
38	C10orf67 (chromosome 10 open reading frame 67)	1	migration z between -2 and 2; enough cells	1.15	5800
39	KRTAP9-2 (keratin associated protein 9-2)	-1.46	under 3300 nuclei; migration not judged	0.5	2794
40	DOK7 (docking protein 7)	2.2 (active)	migration z above 2; enough cells	1.46	6570
41	GPR20 (G protein-coupled receptor 20)	-1.15	migration z between -2 and 2; enough cells	0.58	4879
42	POLR2E (RNA polymerase II, I and III subunit E)	-1.48	under 3300 nuclei; migration not judged	0.52	3010
43	PRKCG (protein kinase C gamma)	2.21 (active)	migration z above 2; enough cells	1.23	4885
44	BTN1A1 (butyrophilin subfamily 1 member A1)	1.29	migration z between -2 and 2; enough cells	1.06	6156
45	DBI (diazepam binding inhibitor, acyl-CoA binding protein)	-0.99	under 3300 nuclei; migration not judged	0.62	1450
46	PAK1IP1 (PAK1 interacting protein 1)	0.95	migration z between -2 and 2; enough cells	1.13	6532
47	ATG13 (autophagy related 13)	-0.19	migration z between -2 and 2; enough cells	0.84	4863
48	AMD1 (adenosylmethionine decarboxylase 1)	-0.05	migration z between -2 and 2; enough cells	0.8	5806
49	SGPP1 (sphingosine-1-phosphate phosphatase 1)	1.25	migration z between -2 and 2; enough cells	1.04	7058
50	PPIAL4A (peptidylprolyl isomerase A like 4A)	2.05 (active)	migration z above 2; enough cells	1.42	6931
51	DDX52 (DExD-box helicase 52)	1.19	migration z between -2 and 2; enough cells	1.04	6199
52	TMEM167A (transmembrane protein 167A)	0.29	migration z between -2 and 2; enough cells	0.96	3917
53	FITM1 (fat storage inducing transmembrane protein 1)	0.56	migration z between -2 and 2; enough cells	1.03	3578
54	FXYD2 (FXYD domain containing ion transport regulator 2)	-2.18 (active)	migration z below -2; enough cells	0.38	4277
55	KRTAP10-9 (keratin associated protein 10-9)	-2.26 (active)	migration z below -2; enough cells	0.3	3792
56	SPINK13 (serine peptidase inhibitor Kazal type 13)	-0.07	migration z between -2 and 2; enough cells	0.87	5626
57	MTO1 (mitochondrial tRNA translation optimization 1)	0.6	migration z between -2 and 2; enough cells	0.92	5277

Laid out differently: entries from further up.
AMD1 (adenosylmethionine decarboxylase 1)
- migration robust z-score: -0.05
- migration class with cell-count check: migration z between -2 and 2; enough cells
- migration relative to mock: 0.8
- nuclei per well, duplicate mean: 5806

SGPP1 (sphingosine-1-phosphate phosphatase 1)
- migration robust z-score: 1.25
- migration class with cell-count check: migration z between -2 and 2; enough cells
- migration relative to mock: 1.04
- nuclei per well, duplicate mean: 7058

PPIAL4A (peptidylprolyl isomerase A like 4A)
- migration robust z-score: 2.05 (active)
- migration class with cell-count check: migration z above 2; enough cells
- migration relative to mock: 1.42
- nuclei per well, duplicate mean: 6931

DDX52 (DExD-box helicase 52)
- migration robust z-score: 1.19
- migration class with cell-count check: migration z between -2 and 2; enough cells
- migration relative to mock: 1.04
- nuclei per well, duplicate mean: 6199

TMEM167A (transmembrane protein 167A)
- migration robust z-score: 0.29
- migration class with cell-count check: migration z between -2 and 2; enough cells
- migration relative to mock: 0.96
- nuclei per well, duplicate mean: 3917

FITM1 (fat storage inducing transmembrane protein 1)
- migration robust z-score: 0.56
- migration class with cell-count check: migration z between -2 and 2; enough cells
- migration relative to mock: 1.03
- nuclei per well, duplicate mean: 3578
